In paper PMC5547150:
Results are given in words; binding and its absence hold for the method and conditions named. Binding calls can cover weak binding; strength is not graded here.

What was measured:
TIM-1 [1] = molecular target: T1, TIM-1 (UniProt Q96D42); experiment: magnetic relaxation (T2) nanosensor assay; duplicate of the receptor-MRNP assay with ZENV, in human plasma solutions; both purified
T1 sequence: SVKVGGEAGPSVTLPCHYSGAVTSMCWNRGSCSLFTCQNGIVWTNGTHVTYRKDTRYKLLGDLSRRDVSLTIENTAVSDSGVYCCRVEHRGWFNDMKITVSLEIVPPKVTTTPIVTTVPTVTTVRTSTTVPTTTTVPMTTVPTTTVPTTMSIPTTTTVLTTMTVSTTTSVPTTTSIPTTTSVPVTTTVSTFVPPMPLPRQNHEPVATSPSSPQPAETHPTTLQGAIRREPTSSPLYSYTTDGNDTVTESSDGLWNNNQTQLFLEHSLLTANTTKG

TIM-1 [2] = molecular target: T1, TIM-1; experiment: magnetic relaxation (T2) nanosensor assay; receptor conjugated to iron oxide nanoparticles (MRNPs); ZENV 3E-8 M in solution; PBS 1X, pH 7.4; 30 minutes at 25 °C; T2 compared with MRNPs alone; both purified

Substance: zika envelope protein
- binding (TIM-1 [1]): binds
- binding (TIM-1 [2]): binds
